Measured values as given in paper PMC11321042, “An invariant C-terminal tryptophan in McdB mediates its interaction and positioning function with carboxysomes” (Molecular Biology of the Cell, 2024).
No constants are given. Whether binding was seen depends on the method and setting.

B1: Maintenance of carboxysome distribution protein B (McdB) from Halothiobacillus neapolitanus, wild type (protein, UniProt D0KZ81 1-96)
chain: MTNLEDKLSASIKTENKDTIAPASTPAKPAARSAAPETTKPASTGAKPATRTAAKKPVARATTTKPAVSKSSKPSADDIQVPAHDTSTHPRRVWPD

How the values were obtained:
[1] = molecular target: Maintenance of carboxysome distribution protein B (McdB) from Halothiobacillus neapolitanus, wild type (Halothiobacillus neapolitanus) (UniProt D0KZ81); assay: SEC-MALS; 50 µl at 1.5 mg/ml on a Shodex PROTEIN KW-804 column, 0.4 ml/min, 150 mM KCl, 20 mM Tris-HCl pH 8.2; both purified
[2] = molecular target: Se McdB[CTD] (Synechococcus elongatus PCC 7942) (UniProt Q8GJM6); assay: SEC; 500 µl at 1.5 mg/ml on Superdex 75 Increase 10/300 GL, 0.4 ml/min, 150 mM KCl, 20 mM Tris-HCl pH 8.2; full-length Hn McdB (10 kDa) and Se McdB[NTD] peptide (2.3 kDa) as sizing standards; both purified

| Binder | binding [1] | binding [2] |
| --- | --- | --- |
| B1 | no binding (tested: 1.5 mg/ml) |  |
| LDLVLGQTTLREEVTLLRQELDQLKRKLHGW (domain or fragment, UniProt Q8GJM6 122-152) [Se McdB[CTD]] |  | no binding (tested: 1.5 mg/ml) |
